Data: article PMC6349883
These are yes or no findings as the source states them, for the method shown. Some binding calls cover weakened binding; strength is not graded here. Where a sequence is shown, tags or fusion partners need not be part of it.

Chains of the proteins cited; added tags and fusions are not shown. Lines headed by an entry give the natural chain unless they say otherwise; changes in a name come on top. A line that says so, or that is headed by a name, gives the form on record, which may keep a tag or linker.
phage-displayed human Interleukin-2 K35E (P60568, form named): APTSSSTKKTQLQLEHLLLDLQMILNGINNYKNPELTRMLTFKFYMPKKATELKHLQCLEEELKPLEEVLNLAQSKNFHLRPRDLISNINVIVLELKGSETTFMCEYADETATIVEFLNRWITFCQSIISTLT

Molecular target: T1, mouse CD25 (IL-2R alpha subunit) extracellular region, Fc-fused, coated in the phage ELISA (mouse) (UniProt P01590)
T1 sequence: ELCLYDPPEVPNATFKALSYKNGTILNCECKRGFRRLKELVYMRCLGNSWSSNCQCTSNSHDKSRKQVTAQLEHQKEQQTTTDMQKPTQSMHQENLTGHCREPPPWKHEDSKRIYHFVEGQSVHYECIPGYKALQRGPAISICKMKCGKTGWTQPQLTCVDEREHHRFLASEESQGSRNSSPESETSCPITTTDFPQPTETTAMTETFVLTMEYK
Experiment: ELISA; phage ELISA: phages diluted to similar levels of the displayed protein (by Myc1-9E10 reactivity) incubated on polyvinyl chloride microplates coated with CD25 (human/mouse); bound phages detected with anti-M13 mAb conjugated to horseradish peroxidase; only the target purified

Substance: phage-displayed human Interleukin-2 K35E (from UniProt P60568 21-153) (ligand)
- binding: binds
